Record: PubChem BioAssay AID1259308 (NCATS, 2017)
Test: 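Knock-downs that increase output of a recombinant reporter protein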 (primary screen). Cell system: human HEK293 embryonic kidney cells stably expressing firefly luciferase (HEK-CMV-Luc2-Hygro). Reagents: single siRNA against human genes, 0.8 pmol siRNA per well. Timing: 72 h. Measurement: 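Luciferase light (ONE-Glo) measured on one replicate plate set and viability (CellTiter-Glo) on the other, scaled to a negative control siRNA, with robust z-scores and luciferase per cell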. Scale: total luciferase, z-score: higher = more reporter protein produced. Rule for the call: 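Active when the median/MAD z-score for overall luciferase is greater than 3; a gene was taken forward for validation with new siRNAs if at least two of its three siRNAs passed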. Meaning of the calls: active = raised luciferase; inactive = no rise.
This is a random part of about 59,000 reagents. Over the whole deposit, about 1,510 (2.6%) got an active call. 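Calls use total luciferase alone and ignore viability, so some active siRNAs may act by altering cell number.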 Reagents against one gene are numbered here. Not all columns of the deposit are shown.

What is on record for LSM4 #1?
total luciferase, z-score: 2.49; call: inactive

For LSM4 #2, what does the deposit list?
total luciferase, z-score: 2.14; call: inactive

With LSM4 #3, how do the results read?
total luciferase, z-score: 0.681; call: inactive

What did the screen give for ZC3H10 (zinc finger CCCH-type containing 10) #1?
total luciferase, z-score: 0.312; call: inactive

Which result is listed for ZC3H10 (zinc finger CCCH-type containing 10) #2?
total luciferase, z-score: 0.236; call: inactive

For ZC3H10 (zinc finger CCCH-type containing 10) #3, how do the results read?
total luciferase, z-score: -0.62; call: inactive

For ROBO3 (roundabout guidance receptor 3) #1, what does the deposit list?
total luciferase, z-score: -1.79; call: inactive

What did the screen give for ROBO3 (roundabout guidance receptor 3) #2?
total luciferase, z-score: -0.91; call: inactive

What did the screen give for ROBO3 (roundabout guidance receptor 3) #3?
total luciferase, z-score: -0.947; call: inactive

Which result is listed for GBP6 (guanylate binding protein family member 6) #1?
total luciferase, z-score: 1.45; call: inactive

What did the screen give for GBP6 (guanylate binding protein family member 6) #2?
total luciferase, z-score: 0.41; call: inactive

How did the screen score GBP6 (guanylate binding protein family member 6) #3?
total luciferase, z-score: -0.0494; call: inactive

What did the screen give for GPR107 (G protein-coupled receptor 107) #1?
total luciferase, z-score: -0.744; call: inactive

For GPR107 (G protein-coupled receptor 107) #2, what was measured?
total luciferase, z-score: 0.477; call: inactive

What is on record for GPR107 (G protein-coupled receptor 107) #3?
total luciferase, z-score: -0.552; call: inactive

With KRT77 (keratin 77) #1, how do the results read?
total luciferase, z-score: -1.03; call: inactive

For KRT77 (keratin 77) #2, how do the results read?
total luciferase, z-score: -0.517; call: inactive

How did the screen score KRT77 (keratin 77) #3?
total luciferase, z-score: -0.667; call: inactive

How did the screen score NGEF (neuronal guanine nucleotide exchange factor) #1?
total luciferase, z-score: -1.96; call: inactive

With NGEF (neuronal guanine nucleotide exchange factor) #2, how do the results read?
total luciferase, z-score: -0.587; call: inactive

With NGEF (neuronal guanine nucleotide exchange factor) #3, how do the results read?
total luciferase, z-score: 0.503; call: inactive

2 entries already listed, ordered by “total luciferase, z-score”, low to high.
GPR107 (G protein-coupled receptor 107) #3 → total luciferase, z-score = -0.552; call = inactive
GPR107 (G protein-coupled receptor 107) #2 → total luciferase, z-score = 0.477; call = inactive
